Data published in publication PMC7090148 (2020).
Results are given in words; binding and its absence hold for the method and conditions named. Binding seen in cells or lysates may run through a third protein. Some results given as binding are weak or reduced against the parent protein; the word gives no strength. Sequences can lack the tags named with a protein.

Assays:
[1] = target: T1, Myc-tagged OFD1 (oral-facial-digital syndrome 1), full length (human) (UniProt O75665); assay: co-IP; NTAP-TRAPPC8 and NTAP-TRAPPC12 co-expressed together with Myc-OFD1 to allow competition of binding; Myc-OFD1 pulled down; immunoblot
T1 sequence: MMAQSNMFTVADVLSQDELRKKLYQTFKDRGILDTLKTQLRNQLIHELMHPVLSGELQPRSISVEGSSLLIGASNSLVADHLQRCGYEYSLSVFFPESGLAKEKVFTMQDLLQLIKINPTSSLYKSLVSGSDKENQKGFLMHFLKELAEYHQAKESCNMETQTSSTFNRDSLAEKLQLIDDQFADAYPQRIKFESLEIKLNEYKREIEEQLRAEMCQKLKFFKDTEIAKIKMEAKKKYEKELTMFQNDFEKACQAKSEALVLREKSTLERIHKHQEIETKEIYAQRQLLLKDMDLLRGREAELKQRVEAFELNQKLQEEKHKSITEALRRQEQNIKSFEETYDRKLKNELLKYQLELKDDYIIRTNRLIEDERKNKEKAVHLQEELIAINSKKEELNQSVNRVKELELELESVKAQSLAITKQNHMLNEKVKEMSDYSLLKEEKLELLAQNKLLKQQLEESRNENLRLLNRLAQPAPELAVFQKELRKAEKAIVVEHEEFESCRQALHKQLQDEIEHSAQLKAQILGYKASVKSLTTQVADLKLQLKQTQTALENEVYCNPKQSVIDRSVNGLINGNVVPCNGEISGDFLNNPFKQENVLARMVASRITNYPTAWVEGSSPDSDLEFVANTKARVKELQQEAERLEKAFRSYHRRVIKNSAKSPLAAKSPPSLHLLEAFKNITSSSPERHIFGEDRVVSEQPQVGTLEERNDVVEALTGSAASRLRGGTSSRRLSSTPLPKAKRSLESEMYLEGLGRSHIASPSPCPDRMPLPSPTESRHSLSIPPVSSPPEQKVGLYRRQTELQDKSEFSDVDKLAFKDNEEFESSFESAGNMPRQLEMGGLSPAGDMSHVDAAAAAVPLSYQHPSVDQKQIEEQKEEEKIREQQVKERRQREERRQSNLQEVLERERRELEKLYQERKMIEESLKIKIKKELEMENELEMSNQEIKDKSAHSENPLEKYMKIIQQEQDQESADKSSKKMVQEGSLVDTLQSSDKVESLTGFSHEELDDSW

Mouse OFD1 A80T (mouse) = target: T2, Mouse OFD1 A80T (mouse) (UniProt Q80Z25); assay: co-IP; OFD1 mutants co-expressed with TRAPPC8 or TRAPPC12; IP efficiency as ratio of immunoprecipitated TRAPPC8/OFD1 or TRAPPC12/OFD1; cell line and IP antibody not stated for this panel
T2 sequence: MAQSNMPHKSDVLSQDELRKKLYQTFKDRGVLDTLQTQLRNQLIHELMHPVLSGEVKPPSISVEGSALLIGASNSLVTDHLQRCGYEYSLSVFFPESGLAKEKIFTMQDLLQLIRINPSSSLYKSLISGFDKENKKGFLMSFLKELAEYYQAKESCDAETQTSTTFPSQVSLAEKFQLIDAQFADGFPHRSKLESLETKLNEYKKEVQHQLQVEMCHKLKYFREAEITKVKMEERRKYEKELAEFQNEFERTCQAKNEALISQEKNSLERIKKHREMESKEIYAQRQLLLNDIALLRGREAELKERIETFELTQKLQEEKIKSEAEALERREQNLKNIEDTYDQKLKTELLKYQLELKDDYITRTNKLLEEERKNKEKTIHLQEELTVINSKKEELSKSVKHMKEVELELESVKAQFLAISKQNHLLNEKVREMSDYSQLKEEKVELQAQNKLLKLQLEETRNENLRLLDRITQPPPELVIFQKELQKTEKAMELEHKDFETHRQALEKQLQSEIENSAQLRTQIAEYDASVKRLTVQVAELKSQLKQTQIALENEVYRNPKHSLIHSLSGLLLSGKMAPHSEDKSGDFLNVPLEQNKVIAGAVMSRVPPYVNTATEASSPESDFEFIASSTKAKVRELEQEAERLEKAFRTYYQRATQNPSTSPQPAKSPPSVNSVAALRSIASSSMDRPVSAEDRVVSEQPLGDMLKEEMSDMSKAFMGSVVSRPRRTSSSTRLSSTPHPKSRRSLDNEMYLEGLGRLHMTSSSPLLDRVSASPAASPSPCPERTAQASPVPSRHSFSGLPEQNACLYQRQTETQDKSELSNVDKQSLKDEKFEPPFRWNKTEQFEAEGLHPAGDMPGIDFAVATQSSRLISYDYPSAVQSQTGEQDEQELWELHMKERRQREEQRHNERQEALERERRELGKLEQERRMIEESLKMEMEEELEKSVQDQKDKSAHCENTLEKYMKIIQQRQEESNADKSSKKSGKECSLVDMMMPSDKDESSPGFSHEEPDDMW

[2] = target: T3, Myc-tagged OFD1 N-terminal region (residues 1-192), including the LisH motif (not stated (human or mouse cDNA cloned)) (UniProt O75665); assay: co-IP; Myc-OFD1 (full length or truncations) co-transfected with NTAP-TRAPPC8 or NTAP-TRAPPC12 in HEK293T cells (wild type; also TRAPPC12-/- for TRAPPC8 and TRAPPC8-/- for TRAPPC12); lysate in RIPA buffer (20 mM Tris pH 8.0, 100 mM NaCl, 0.1% NP-40); IP with anti-Myc antibody and protein A-sepharose, 4°C overnight; immunoblot
T3 sequence: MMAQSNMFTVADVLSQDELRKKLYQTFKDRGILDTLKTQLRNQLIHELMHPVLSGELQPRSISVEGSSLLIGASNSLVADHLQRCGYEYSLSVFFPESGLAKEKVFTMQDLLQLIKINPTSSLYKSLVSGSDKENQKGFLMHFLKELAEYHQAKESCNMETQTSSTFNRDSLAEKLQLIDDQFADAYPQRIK

[3] = target: T1, Myc-tagged OFD1 (oral-facial-digital syndrome 1), full length (human); assay: as above

binding [1]: binds
binding (Mouse OFD1 A80T (mouse)): binds
binding [2]: binds
binding [3]: binds
B1: NTAP-tagged TRAPPC12 (protein, UniProt Q8K2L8 1-797)
chain: METAKDGEQSPSEASPSAQAGPENIPEPMSREEESQPLYHEETIDLGGDEFASEENEPTSEGSHNFGDKLNEHMMESVLISDSPNNSEGDVGDLGCLQDVGEPPRGATDHRLPSSTDKEVVDTLSNGSETDGDDTPRDISDMTPDSRASLKEDSTQEDVTSMPALENAATEEVGPKDSLAPREEQTSEVSSNQSSSKDEPLPVCTIFSQATATPSQPHLFLQDGFESQMVKSPSFSSTSETSAKTPPPMVQPSPSLSTFFGDTMSSNSLASDFFDSFTTSTFISVSNPNAGSPVPEKLSSLTAPVGEKSPDSTSPSYSTRMDRSESGVSRAPLDVPESPKPFSQIQAVFAGSDDPFATALSMSEMDRRNDAWLPSQATREVLMSVATQQYGTVFIDKENLTMPGLKFDNIQGDAVKDLMLRFLGEKAAAKRQVLNASSVEQSFVGLKQLISCRNWRAAVDLCGRLLTAHGQGYGKNGLPTSHTTDSLQLWFVRLALLVKLGLFQNAEMEFEPFGNLDQPDLYYEYYPHVYPGRRGSMVPFSMRILHAELQQYLGNPQESLDRLHRVKTVCSKILANLEQGLAEDGGLSSVTQESRQASVQLWRSRLGRVLYSMANCLLLMKDYVLAVDAYLTVIKYYPEQEPQLLSGIGRILLQIGDIKTAEKYFQDVEKVTQKLDGLQGKIMVLMNRAFLYLGQNNFAEAHKFFTEILRMDPTNAVANNNAAVCLLYLGKLKDSLRQLEAMVQQDPRHYLHESVLFNLTTMYELESSRSMQKKQSLLEAVASKEGDSFNTQCLKLA
